The list shows a part of the results.
B1: il10ra_site1_normal_mot_HHH_b1_01821_000000158_0001_23_39_H_._HHH_b1_01089_0001_0000100005_0000001_0 (protein)
chain: SSSSSSDLEEEIEELLEELKQITDPREFSRVAQEALRLIFRLGDEELLRELWEIFKKWSSSSSSS
B2: il10ra_site1_normal_mot_HHH_b2_04251_af2_000000037_0001_42_56_H_._HHH_b2_03597_0001_0000200022_0000001_0_af2pred_dldesign_0_af2pred (protein)
chain: SSSSSELEALLEEIERLLDAGRLDEAKELLREAARLALEKNDPELIKRVIELAKRLEAAGSSSSS
B3: il10ra_site1_normal_mot_HHH_b1_05056_000000217_0001_1_20_H_._HHH_b1_00010_0001_0000300007_0000001_0 (protein)
chain: SSSSDEEEVEELLEEAKRLAEEGNPREASRLLQEAVRIAFEARNEELLREIWEVVREVAELSSSS
B4: il10ra_site1_sap_19_mot_HHH_b1_04514_000000156_0001_1_18_H_._HHH_b1_01679_0001_0000100001_0000001_0_0001_af2pred_0001 (protein)
chain: SSSSSSEAEKEVAKILIEVLRLNDEEAAERISHLLIRLIVEGDERLIEEIRELFEEVEENSSSSS
B5: il10ra_site1_sap_27_mot_b26a303360aa2756ef5b79665ce52f45_0001_000000179_0001_1_11_H_._HHH_b1_07223_af2_0001_0000200010_0000001_0_0001 (protein)
chain: SSSSDVEEEVERLIEEAKELLEEGDPREAARVLAKALELAYRSGDEELLRRIWELVQEIAKSSSS
B6: il10ra_site1_normal_mot_HHH_b2_07784_af2_000000103_0001_19_36_H_._HHH_b1_03293_0001_0000300017_0000001_1 (protein)
chain: SSSSEEAEELVKEVEEELRRLLEEGNFEEAYRALKEAIEQLVELGNPEAARRLSELFLRLASSSS
B7: il10ra_site1_sap_18_mot_HHH_b1_05357_000000034_0001_23_39_H_._HHH_b2_06286_0001_0000500033_0000001_0_0001 (protein)
chain: SDVVEFIARVAEKFVEELIKEAQTEEVRELLEEVKETIEEAVEKNDLEKVWEALKKAAELRKLIS
B8: il10ra_site1_sap_30_mot_HHH_b2_03425_000000200_0001_22_39_H_._HHH_b2_07962_0001_0000100002_0000001_0_0001_af2pred_0001 (protein)
chain: SSSSDLEELLELSLRFAERLLELGDPRAARRIVRAALQLARRLNDEEFLERVEELEERVNSSSSS
B9: il10ra_site1_sap_23_mot_HHH_b2_02757_000000230_0001_1_19_H_._HHH_b2_05650_0001_0000100006_0000002_0_0001_af2pred_0001 (protein)
chain: SSSSDSLEYLIRVAIKAARIALERGDPEKAQEALEIAEKSARELNDPELEREVEELLEELNSSSS
B10: il10ra_site1_normal_mot_HHH_b1_00999_000000080_0001_41_55_H_._HHH_b1_02815_0001_0000300012_0000001_0 (protein)
chain: SSSSDEEEERSEELLEELEKLLKEGDEHRFLRLVAEIARFAYRVSDEELLQAVWELAKKFGSSSS
B11: il10ra_site1_sap_16_mot_HHH_b2_00943_af2_000000149_0001_1_17_H_._HHH_b1_05691_0001_0000300036_0000001_0_0001 (protein)
chain: SSSSDLEELVRAALRLAEQAYENGDPRAARLLLRALEELLEREGNEELLEEVRRLLEELENSSSS
B12: il10ra_site1_sap_21_mot_HHH_b2_00479_000000091_0001_1_12_H_._HHH_b1_04780_af2_0001_0000100007_0000001_0_0001 (protein)
chain: SSSSSDLLQEALRLSREAFHLALRGDPERARELLEEAEELAREAGDPRLVEMIENLLKTQSSSSS
B13: il10ra_site1_normal_mot_HHH_b2_07579_000000275_0001_1_19_H_._HHH_b1_06901_0001_0000200015_0000001_0 (protein)
chain: SSSSSSDESQEIIELIREAAHIEDPEEAEKVLEEAKELAEEAGNEVALFAVEHLLRDLSSSSSSS
B14: il10ra_site1_normal_mot_HHH_b2_00622_af2_000000153_0001_40_57_H_._HHH_b1_04307_0001_0000200018_0000001_0_af2pred_0001 (protein)
chain: SSSSSDEELLRRLIKAAKRLLELGNPERARLTLRDAAVTARFLGDEELLEEIERLLEEIKSSSSS
B15: il10ra_site1_sap_16_mot_HHH_b1_06789_af2_000000041_0001_1_20_H_._HHH_b2_01747_af2_0001_0001300030_0000002_0_0001_af2pred_dldesign_0_af2pred (protein)
chain: SSSSDKNKAAADYWTEALKTAYAQGNKEAIASSLHGARTLAELINDPELKKVVDEVAAKISSSSS
B16: il10ra_site1_sap_15_mot_HHH_b1_07393_000000133_0001_21_37_H_._HHH_b2_04136_af2_0001_0000700027_0000002_0_0001 (protein)
chain: SSSSSSTEVYELVKRAAEAFADGNPEEAEELLEEAERLAREEGNFAVLFAIEHLLEAFSSSSSSS
B17: il10ra_site1_normal_mot_HHH_b1_06994_000000193_0001_40_55_H_._HHH_b1_01074_0001_0000200030_0000001_0_af2pred_0001 (protein)
chain: SSSSSEEEKRLRIQLRQVELALKLGDEELARFLLRALKRFAEEANDEEIKEEIERLEEEVNSSSS
B18: il10ra_site1_sap_29_mot_HHH_b2_05323_000000159_0001_1_18_H_._HHH_b2_02661_af2_0001_0000100001_0000001_0_0001_af2pred_dldesign_0_af2pred (protein)
chain: SSSSNIKELEKRADELLVKLYQRGDLDAVKEVATLRIKAKLEGDEELLKEAIDYAEKVLEESSSS
B19: il10ra_site1_sap_25_mot_HHH_b1_05357_000000034_0001_23_39_H_._HHH_b1_07730_0001_0000200011_0000002_0_0001_af2pred_0001 (protein)
chain: SSSSSEEEEELEEFVEELVKEFGLSEEEKRSLELHAKFALEQGIDAEVIKLALERLARMLESSSS
B20: il10ra_site1_sap_13_mot_2fa031a62b9321f410fa37cb4b35ac9e_0001_af2_000000160_0001_1_14_H_._HHH_b2_00990_af2_0001_0000500030_0000001_0_0001 (protein)
chain: SSSSDTLEVSVRFMLEAAEKLYEAGDEEHARFVLEELLRFAEHANDEEAERLIQELLEELSSSSS
B21: il10ra_site1_sap_26_mot_HHH_b2_02463_af2_000000222_0001_1_19_H_._HHH_b2_02199_af2_0001_0000400047_0000002_0_0001 (protein)
chain: SSSSSEEYKEVKEAIREAIELYKNGDPEEAQELLEELLEKLEELGNRNLVYNVEWLLRVLSSSSS
B22: il10ra_site1_normal_mot_HHH_b1_05326_000000242_0001_1_20_H_._HHH_b2_08124_0001_0000100011_0000002_0 (protein)
chain: SSSSSSDEFLRLLRRIFRLLLRGNPEEAQELLEELEELAEELNDPAARRAVEILKEAASSSSSSS
B23: il10ra_site1_sap_18_mot_HHH_b1_06789_af2_000000041_0001_1_20_H_._HHH_b2_02765_0001_0000600018_0000001_0_0001_af2pred_dldesign_0_af2pred (protein)
chain: SSIEDVEKALAYNRFLASHAKTPEAEAALAEAEEALEKLKAGEITVEEAINKLAAIARKLGALIS
B24: il10ra_site1_sap_28_mot_HHH_b1_03478_af2_000000027_0001_1_18_H_._HHH_b2_07426_af2_0001_0000100001_0000001_0_0001 (protein)
chain: SSSSSDEHQELLELLLEAFRLALRGNPEEAKELLEEAHELARELGDERALRMVEDMLRALSSSSS
B25: il10ra_site1_normal_mot_HHH_b1_02997_000000220_0001_39_52_H_._HHH_b2_08164_af2_0001_0000300013_0000002_0_af2pred_dldesign_0_af2pred (protein)
chain: SSSSSSAAEKAVELLKKAAELLGEGKKEEAKKVLEEAEKLAKEAGNLNVLRNIEYLKSLLSSSSS
B26: il10ra_site1_normal_mot_HHH_b1_06837_000000150_0001_20_37_H_._HHH_b1_00819_0001_0000100006_0000003_0 (protein)
chain: SSSSDEERRRVYELLREASELLFEGNPEEAREVLKEAEELVEEANNELLRFVLEHLERIVNSSSS
B27: il10ra_site1_sap_19_mot_HHH_b1_05021_af2_000000167_0001_42_56_H_._HHH_b1_02196_0001_0000400015_0000002_0_0001 (protein)
chain: SSSSDAEEYLREVAVELLELFREGDPEKAEELLEEAREFLEEKGNRELVRMIEFQFRASEWSSSS
B28: il10ra_site1_sap_17_mot_HHH_b1_00929_000000068_0001_1_20_H_._HHH_b1_05876_0001_0000100001_0000002_0_0001 (protein)
chain: SSDESQEVYRLLREAVELIHEGDHEEAEKVLEEAEELVKELGDMVLERQIRYLQKILEEERKRSS
B29: il10ra_site1_normal_mot_HHH_b2_00984_000000042_0001_1_20_H_._HHH_b1_07305_0001_0000300025_0000001_0 (protein)
chain: SSSSSDEEELKELLEELEELVRRNDRERFLRLAQELVRLAIRLSDPEILQELWELIKKFASSSSS
B30: il10ra_site1_sap_19_mot_HHH_b1_05860_000000142_0001_1_19_H_._HHH_b1_04670_af2_0001_0000600070_0000001_0_0001_af2pred_0001 (protein)
chain: SDEEEAERILEKIKELAEEKNDEKVKIAVRFLEDLDRAAKELNDEESVKAITRAARALLELVERS
B31: il10ra_site1_sap_19_mot_HHH_b1_05357_000000034_0001_23_39_H_._HHH_b2_00301_0001_0000300008_0000001_0_0001_af2pred_0001 (protein)
chain: SSSSSSDDERAVRLLIRAARLASDPRLARAALRIAAQAAKASGNEELLEEAERLLEELRSSSSSS
B32: il10ra_site1_sap_16_mot_HHH_b2_06795_000000133_0001_42_56_H_._HHH_b1_00640_0001_0000600047_0000001_0_0001_af2pred_0001 (protein)
chain: SSSSSSEEEEEVRELLEEAKKIEDLEELSYVLTRAYALAYRLGDEELRELVEEVAIKLLGSSSSS
B33: il10ra_site1_normal_mot_HHH_b2_00033_000000036_0001_41_54_H_._HHH_b2_05176_af2_0002_0000600025_0000001_0 (protein)
chain: SSSSSEEEEELRRLEEKAEELIENGNPKEALEVLAEAVRLALKLGDEEVFQKIWELIKRLGSSSS
B34: il10ra_site1_sap_15_mot_HHH_b2_01447_af2_000000258_0001_1_20_H_._HHH_b1_00452_af2_0001_0000500025_0000001_0_0001 (protein)
chain: SSSSSDELFEEVKRAYEEARELYRNGNPEEARRLLEEILEKAEELGNWVVEFAIRHALRVLSSSS
B35: il10ra_site1_sap_26_mot_HHH_b1_02665_000000293_0001_1_18_H_._HHH_b1_05755_0001_0000600041_0000001_0_0001 (protein)
chain: SSSSTEITRRVYELAREVFELARNGNPEEAREVLEEAERLAEENNDFILRHSVEALKRLLSSSSS
B36: il10ra_site1_sap_28_mot_HHH_b1_02809_af2_000000277_0001_40_57_H_._HHH_b1_04687_af2_0001_0000400018_0000001_1_0001 (protein)
chain: SSSSDEELQEALRLSQEAFRLALRGNPEEARKVVEKAEELAEEANDERLLKQLEILLRALSSSSS
B37: il10ra_site1_normal_mot_HHH_b1_08578_af2_000000096_0001_1_20_H_._HHH_b1_07134_0001_0000100002_0000002_0_af2pred_dldesign_0_af2pred (protein)
chain: SSSSSELEEFLQRKIDGLRYLKELGDEEAFKKAYEYAKALAEKAKNEETLKALEELKKELESSSS

target: il10ra, Q13651; assay: yeast display titration

Apparent Kd, inactive:
B1 no binding seen
B2 no binding seen
B3 no binding seen
B4 no binding seen
B5 no binding seen
B6 no binding seen
B7 no binding seen
B8 no binding seen
B9 no binding seen
B10 no binding seen
B11 no binding seen
B12 no binding seen
B13 no binding seen
B14 no binding seen
B15 no binding seen
B16 no binding seen
B17 no binding seen
B18 no binding seen
B19 no binding seen
B20 no binding seen
B21 no binding seen
B22 no binding seen
B23 no binding seen
B24 no binding seen
B25 no binding seen
B26 no binding seen
B27 no binding seen
B28 no binding seen
B29 no binding seen
B30 no binding seen
B31 no binding seen
B32 no binding seen
B33 no binding seen
B34 no binding seen
B35 no binding seen
B36 no binding seen
B37 no binding seen

Fetched one by one from the entries so far, two records:
Apparent Kd, inactive:
B8 no binding seen
B34 no binding seen

Source: article PMC10163288
